{"source": "patent US6781015B2", "about": "“Aminobenzophenones and photopolymerizable compositions including the same” (Albemarle Corporation, priority 1997, dated 2004)"}
{"assay": "UV curing of hexanediol diacrylate compositions (photoinitiator activity)", "settings": "1% aminobenzophenone compound in hexanediol diacrylate composition, 0.15 inch film, Fusion \"H\" bulb 600 Watts/inch, belt speed 55 feet per minute", "units": {"Passes under the lamp to obtain a well-cured hard polymer": "passes"}}
{"smiles": "CN(C)c1ccc(C(=O)c2ccc(N(C)C)cc2)cc1", "note": "[TMMK, 4,4′-bis(dimethylamino)benzophenone]", "Passes under the lamp to obtain a well-cured hard polymer": 10}
{"smiles": "CCN(C)c1ccc(C(=O)c2ccc(N(C)CC)cc2)cc1", "note": "[MEAB, 4,4′-bis(methylethylamino)benzophenone]", "Passes under the lamp to obtain a well-cured hard polymer": 10}
{"smiles": "CCN(CC)c1ccc(C(=O)c2ccc(N(CC)CC)cc2)cc1", "note": "[TEMK, 4,4′-bis(diethylamino)benzophenone]", "Passes under the lamp to obtain a well-cured hard polymer": 25}
